Experimental data reported in patent publication US20020106348A1, “Cancer therapeutics involving the administration of 2-methoxyestradiol and an agent that increases intracellular superoxide anion” (priority 2000, published 2002).
For at least one compound, name, drawing or mass did not settle the structure.

Assays:
[1] = test system: HL-60; assay: Apoptosis / nucleosomal DNA fragmentation in HL-60 cells; type: cell-based, human; settings: estrogen derivatives, FIG. 20
[2] = test system: CuZnSOD; assay: Inhibition of CuZnSOD by estrogen derivatives; type: biochemical; settings: FIG. 20

C[C@]12CC[C@@H]3c4ccc(O)cc4CC[C@H]3[C@@H]1CCC2=O [estrone]
DNA fragmentation (apoptosis) in HL-60 cells [1]: little DNA fragmentation
inhibition of SOD activity [2]: minimal activity against SOD
